PubChem BioAssay AID1688 (National Center for Advancing Translational Sciences (NCATS), 2009)
The whole screen tested about 220,000 compounds, of which about 2,400 (1.1%) were called active. The shares of active, inactive and inconclusive entries below differ from those in the screen. Calls come from the whole dose curve; as a rule, active = well fitted inhibition curve with a large enough effect; inconclusive = small, poorly fitted or top-dose-only effect, or effect the other way; inactive = no such curve, though single readings can be large or run the other way. Where the call is inconclusive, the potency comes from a doubtful curve fit.

Assay: qHTS Multiplex Assay to Identify Dual Action Probes in a Cell Model of Huntington: Aggregate Formation (GFP); note: nearly all actives have a fitted effect of over 60% in size
Settings: PC12 HttQ103-GFP aggregates, Acumen cytometry, 40 h; activity change, negative = inhibition: at 46.1 µM (top of the series) unless noted
In short: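 Steps: seed 1500 PC12 HTTQ103-GFP cells/well; add tebufenozide, 100 nM final; add compound titration; add ATPLite reagent; quantify GFP aggregates by laser scanning cytometry.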
% is set by controls: 0 for no effect and ±100 for the full control effect; potency is the fitted concentration of half-maximal effect.

Row | Structure (SMILES) | activity change, negative = inhibition | Potency
1 | O=c1ccn(-c2cccc(C(F)(F)F)c2)nc1-c1ccn(-c2cccc(Cl)c2)n1 | inactive: -20.7% | –
2 | CCn1nc(C(=O)OCC(=O)N2CCc3ccccc32)c2ccccc2c1=O | – | inconclusive: 0.1 µM [activator, partial curve, poor fit]
3 | COC(=O)CCN(C(=O)c1ccc(N2CCCCC2)c([N+](=O)[O-])c1)c1ccccn1 | inactive: 5.96% [at 9.22 µM] | –
4 | Cn1c(SCC(=O)N2CCCCC2)nc2c([nH]c3ccccc32)c1=O | – | inconclusive: 0.562 µM [inhibitor, full curve, poor fit]
5 | O=C(Nc1cccc(F)c1)c1ccccc1-c1ccccc1 | – | inconclusive: 2.82 µM [inhibitor, partial curve]
6 | Cc1nn(Cc2c(F)c(F)c(F)c(F)c2F)c(C)c1NC(=O)c1c([N+](=O)[O-])cnn1C | – | inconclusive: 25.1 µM [inhibitor, single point]
7 | O=C(NC(=S)Nc1ccc2c(c1)OCCO2)c1ccccc1 | inactive: 17.6% | –
8 | CC1(C)Cc2c(C#N)c(OCC(=O)c3ccc(Cl)cc3)nc(-c3ccoc3)c2CO1 | inactive: 27.5% | –
9 | CC(/C=C/c1ccco1)=N\NC(=O)c1cc(C)[nH]n1 | – | inconclusive: 0.891 µM [activator, full curve, poor fit]
10 | O=C(CSc1nc2[nH]ncc2c(=O)n1-c1ccccc1)NCCc1ccccc1 | – | inconclusive: 0.447 µM [activator, partial curve]
11 | CC1CCCCC1NC(=S)Nc1ccc(SC(F)F)cc1 (stereo not drawn) | – | inconclusive: 35.5 µM [inhibitor, single point]
12 | CCOc1ccc(S(=O)(=O)N2CCN(c3ccccc3)CC2)c2cccnc12 | – | inconclusive: 10 µM [inhibitor, partial curve, poor fit]
13 | Cc1ccc(-n2cccc2C(=S)N=P(N(C)C)(N(C)C)N(C)C)cc1 | – | inconclusive: 11.2 µM [inhibitor, single point]
14 | COc1ccccc1N1CCN(/N=C/c2ccc(O)c(O)c2)CC1 | inactive: 3.1% [at 9.22 µM] | –
15 | Clc1cccc(Cl)c1CO/N=C/c1c(-c2ccccc2)nc2n1CCS2 | – | inconclusive: 14.1 µM [inhibitor, partial curve]
16 | CC(C)(C)N1CCC1CN (stereo not drawn) | – | inconclusive: 5.62 µM [activator, single point]
17 | Cc1ccc(/C=N/n2c(-c3ccncc3)n[nH]c2=S)cc1 | inactive: 3.28% | –
18 | O=C1C2C3C=CC(C4CC34)C2C(=O)N1/N=C/c1ccc(-c2ccc(F)cc2[N+](=O)[O-])o1 (stereo not drawn) | – | inconclusive: 35.5 µM [inhibitor, single point]
19 | Cc1ccc(/C=C2/NC(=O)N(Cc3ccccc3F)C2=O)o1 | – | inconclusive: 25.1 µM [activator, single point]
20 | O=C(CCc1ccc(S(=O)(=O)NC2CCCCC2)cc1)N(Cc1ccccc1)Cc1ccccc1 | – | inconclusive: 28.2 µM [inhibitor, single point]
21 | Cc1cc(C)n(-c2ccc(C(=O)Nc3ccc(C)c(S(=O)(=O)N4CCOCC4)c3)cc2)n1 | – | inconclusive: 0.447 µM [activator, partial curve]
22 | Nc1ncnc(Nc2ccc(S(N)(=O)=O)cc2)n1 | inactive: 3.76% [at 9.22 µM] | –

Single records, as listed above:
COC(=O)CCN(C(=O)c1ccc(N2CCCCC2)c([N+](=O)[O-])c1)c1ccccn1 in the list: activity change, negative = inhibition: inactive: 5.96% [at 9.22 µM]
Cc1ccc(-n2cccc2C(=S)N=P(N(C)C)(N(C)C)N(C)C)cc1 in the list: Potency: inconclusive: 11.2 µM [inhibitor, single point]
O=C(CSc1nc2[nH]ncc2c(=O)n1-c1ccccc1)NCCc1ccccc1 in the list: Potency: inconclusive: 0.447 µM [activator, partial curve]

(list continues)

Row | Structure (SMILES) | activity change, negative = inhibition | Potency
23 | O=C(C1=C[C@@H](C2CC2)C[C@@H](OCCCCO)O1)N1CCN(Cc2ccc3c(c2)OCO3)CC1 | inactive: 5.93% [at 9.22 µM] | –
24 | COc1ccccc1C(CCN(Cc1cccs1)C(C)=O)c1ccco1 (stereo not drawn) | inactive: 19.8% | –
25 | O=C(c1ccc(Br)cc1)c1sc(N2CCOCC2)nc1-c1ccccc1 | – | inconclusive: 35.5 µM [inhibitor, single point]
26 | Cc1ccccc1NC(=O)COC(=O)c1ccc(S(C)(=O)=O)c([N+](=O)[O-])c1 | – | inconclusive: 12.6 µM [inhibitor, single point]
27 | CC(=O)c1ccc(N2CCN(C(=O)c3cccc(Oc4ccccc4)c3)CC2)cc1 | – | inconclusive: 22.4 µM [inhibitor, single point]
28 | C/C(Cn1nnc([N+](=O)[O-])n1)=N\NC(=O)c1ccncc1 | – | inconclusive: 11.2 µM [inhibitor, partial curve]
29 | O=C(c1cnc(N2CCN(c3ccccn3)CC2)c2ccccc12)N1CCN(c2cccc(Cl)c2)CC1 | – | active: 7.94 µM
30 | COc1cc(/C=C2\CCc3ccccc3C2=O)cc(OC)c1OC | – | inconclusive: 35.5 µM [activator, single point]
31 | Nc1ccc(Nc2nc(-c3ccncc3)cs2)cc1 | – | inconclusive: 1.78 µM [activator, partial curve]
32 | O=C(NC(NC(=S)Nc1cccc(Cl)c1)C(Cl)(Cl)Cl)OCc1ccccc1 (stereo not drawn) | – | inconclusive: 20 µM [inhibitor, single point]
33 | CCN(Cc1ccncc1)Cc1c(O)ccc2cc(Br)ccc12 | inactive: 4.62% | –
34 | CCCCCCC(=O)N(O)C1CC(=O)N(Cc2ccccc2)C1=O (stereo not drawn) | – | inconclusive: 12.6 µM [activator, partial curve]
35 | Nc1ccc(Nc2ccccc2)c(Cl)c1 | – | inconclusive: 7.94 µM [activator, partial curve, poor fit]
36 | CCCN(CC1CCCO1)C(=O)CCc1nnc(-c2cc(C)on2)o1 (stereo not drawn) | inactive: -1.63% [at 9.22 µM] | –
37 | O=C(Nc1nc(-c2ccc3c(c2)OCCO3)cs1)C1CCCC1 | inactive: 20.4% | –
38 | O=C(NC(=S)N1CCN(Cc2ccc3c(c2)OCO3)CC1)c1ccc(Cl)cc1 | – | inconclusive: 35.5 µM [inhibitor, single point]
39 | CCN(CC)C1=NC=CC(c2ccccc2)=CC1C (stereo not drawn) | – | inconclusive: 35.5 µM [activator, single point]
40 | Cc1ccccc1CN1CCN(CC(=O)NCc2ccco2)C1=O | – | inconclusive: 3.98 µM [inhibitor, single point]
41 | O=C(N/N=C(\c1ccccc1)c1cccnc1)C(O)(c1ccccc1)c1ccccc1 | inactive: -11.6% | –
42 | COc1ccc(Nc2nnc(SCC(=O)NC(=O)Nc3ccc4c(c3)OCCO4)s2)cc1 | – | inconclusive: 28.2 µM [inhibitor, single point]
43 | O=C(O)/C=C/C(=O)Nc1ccc(Cc2ccc(NC(=O)/C=C/C(=O)O)cc2)cc1 | inactive: -19.7% [at 9.22 µM] | –
